Experimental data from patent publication US20250295799A1, “ANTIBODY-DRUG CONJUGATES TARGETING GLYPICAN-3 AND METHODS OF USE” (Zymeworks BC Inc., priority 2022, published 2025).
Results are given in words; binding and its absence hold for the method and conditions named. Some results given as binding are weak or reduced against the parent protein; the word gives no strength.

Amino acid sequences for entries named in this document (tags omitted). A change or cut given only in a name is not applied to a line headed by its entry.
UniProt P51654: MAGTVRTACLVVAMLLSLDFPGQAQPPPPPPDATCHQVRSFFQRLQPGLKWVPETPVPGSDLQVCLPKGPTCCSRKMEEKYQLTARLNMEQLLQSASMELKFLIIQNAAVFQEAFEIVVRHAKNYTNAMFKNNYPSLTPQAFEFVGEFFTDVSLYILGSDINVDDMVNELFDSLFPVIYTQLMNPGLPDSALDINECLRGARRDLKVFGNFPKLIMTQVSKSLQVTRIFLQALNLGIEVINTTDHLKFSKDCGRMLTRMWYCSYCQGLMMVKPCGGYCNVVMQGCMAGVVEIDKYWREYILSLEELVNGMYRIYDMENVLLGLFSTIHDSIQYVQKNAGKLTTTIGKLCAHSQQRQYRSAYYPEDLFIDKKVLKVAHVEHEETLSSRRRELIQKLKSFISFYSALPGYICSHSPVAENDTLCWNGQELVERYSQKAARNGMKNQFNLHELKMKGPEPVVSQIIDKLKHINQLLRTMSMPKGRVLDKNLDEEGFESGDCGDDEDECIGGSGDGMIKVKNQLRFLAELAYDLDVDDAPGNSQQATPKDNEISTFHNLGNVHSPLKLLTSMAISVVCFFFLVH

Columns and labels:
[1] = target: recombinant cynomolgus GPC3 (ACROBiosystems) (cynomolgus monkey); assay: SPR
[2] = target: recombinant human GPC3 (ACROBiosystems) (human) (UniProt P51654); assay: SPR

binding [1] | binding [2] | Binder
binds | binds | v40216 (H18L6_LC_N33R mAb) (antibody, human IgG1, kappa, V domains shown) VH: QVQLVQSGAEVKKPGSSVKVSCKASGYTFTDYEMHWVKQAPGHGLEWIGAIDPETGDTAYNQKFKGKATLTADTSTSTAYMELSSLRSEDTAVYYCTRYFSFAYWGQGTLVTVSS VL: EIVLTQSPATLSLSPGERATISCRSSQSLRHSRGNTYLQWYQQKPGQAPRLLIYKVSNRFSGVPARFSGSGSGTDFTLTISSLEPEDFAVYFCYQSKHVPYTFGGGTKVEIKR
binds | binds | v40213 (H18L6_LC_N33E mAb) (antibody, human IgG1, kappa, V domains shown) VH: QVQLVQSGAEVKKPGSSVKVSCKASGYTFTDYEMHWVKQAPGHGLEWIGAIDPETGDTAYNQKFKGKATLTADTSTSTAYMELSSLRSEDTAVYYCTRYFSFAYWGQGTLVTVSS VL: EIVLTQSPATLSLSPGERATISCRSSQSLRHSEGNTYLQWYQQKPGQAPRLLIYKVSNRFSGVPARFSGSGSGTDFTLTISSLEPEDFAVYFCYQSKHVPYTFGGGTKVEIKR
binds | binds | v40220 (H18L6_LC_N33Q mAb) (antibody, human IgG1, kappa, V domains shown) VH: QVQLVQSGAEVKKPGSSVKVSCKASGYTFTDYEMHWVKQAPGHGLEWIGAIDPETGDTAYNQKFKGKATLTADTSTSTAYMELSSLRSEDTAVYYCTRYFSFAYWGQGTLVTVSS VL: EIVLTQSPATLSLSPGERATISCRSSQSLRHSQGNTYLQWYQQKPGQAPRLLIYKVSNRFSGVPARFSGSGSGTDFTLTISSLEPEDFAVYFCYQSKHVPYTFGGGTKVEIKR
binds | binds | v40217 (H18L6_LC_N33K mAb) (antibody, human IgG1, kappa, V domains shown) VH: QVQLVQSGAEVKKPGSSVKVSCKASGYTFTDYEMHWVKQAPGHGLEWIGAIDPETGDTAYNQKFKGKATLTADTSTSTAYMELSSLRSEDTAVYYCTRYFSFAYWGQGTLVTVSS VL: EIVLTQSPATLSLSPGERATISCRSSQSLRHSKGNTYLQWYQQKPGQAPRLLIYKVSNRFSGVPARFSGSGSGTDFTLTISSLEPEDFAVYFCYQSKHVPYTFGGGTKVEIKR
binds | binds | v40212 (H18L6_LC_G34A mAb) (antibody, human IgG1, kappa, V domains shown) VH: QVQLVQSGAEVKKPGSSVKVSCKASGYTFTDYEMHWVKQAPGHGLEWIGAIDPETGDTAYNQKFKGKATLTADTSTSTAYMELSSLRSEDTAVYYCTRYFSFAYWGQGTLVTVSS VL: EIVLTQSPATLSLSPGERATISCRSSQSLRHSNANTYLQWYQQKPGQAPRLLIYKVSNRFSGVPARFSGSGSGTDFTLTISSLEPEDFAVYFCYQSKHVPYTFGGGTKVEIKR
binds | binds | v40215 (H18L6_LC_N33V mAb) (antibody, human IgG1, kappa, V domains shown) VH: QVQLVQSGAEVKKPGSSVKVSCKASGYTFTDYEMHWVKQAPGHGLEWIGAIDPETGDTAYNQKFKGKATLTADTSTSTAYMELSSLRSEDTAVYYCTRYFSFAYWGQGTLVTVSS VL: EIVLTQSPATLSLSPGERATISCRSSQSLRHSVGNTYLQWYQQKPGQAPRLLIYKVSNRFSGVPARFSGSGSGTDFTLTISSLEPEDFAVYFCYQSKHVPYTFGGGTKVEIKR
binds | binds | v40221 (H18L6_LC_N33S mAb) (antibody, human IgG1, kappa, V domains shown) VH: QVQLVQSGAEVKKPGSSVKVSCKASGYTFTDYEMHWVKQAPGHGLEWIGAIDPETGDTAYNQKFKGKATLTADTSTSTAYMELSSLRSEDTAVYYCTRYFSFAYWGQGTLVTVSS VL: EIVLTQSPATLSLSPGERATISCRSSQSLRHSSGNTYLQWYQQKPGQAPRLLIYKVSNRFSGVPARFSGSGSGTDFTLTISSLEPEDFAVYFCYQSKHVPYTFGGGTKVEIKR
binds | binds | v40214 (H18L6_LC_N33T mAb) (antibody, human IgG1, kappa, V domains shown) VH: QVQLVQSGAEVKKPGSSVKVSCKASGYTFTDYEMHWVKQAPGHGLEWIGAIDPETGDTAYNQKFKGKATLTADTSTSTAYMELSSLRSEDTAVYYCTRYFSFAYWGQGTLVTVSS VL: EIVLTQSPATLSLSPGERATISCRSSQSLRHSTGNTYLQWYQQKPGQAPRLLIYKVSNRFSGVPARFSGSGSGTDFTLTISSLEPEDFAVYFCYQSKHVPYTFGGGTKVEIKR
binds | binds | v40218 (H18L6_LC_N33H mAb) (antibody, human IgG1, kappa, V domains shown) VH: QVQLVQSGAEVKKPGSSVKVSCKASGYTFTDYEMHWVKQAPGHGLEWIGAIDPETGDTAYNQKFKGKATLTADTSTSTAYMELSSLRSEDTAVYYCTRYFSFAYWGQGTLVTVSS VL: EIVLTQSPATLSLSPGERATISCRSSQSLRHSHGNTYLQWYQQKPGQAPRLLIYKVSNRFSGVPARFSGSGSGTDFTLTISSLEPEDFAVYFCYQSKHVPYTFGGGTKVEIKR
binds | binds | v40219 (H18L6_LC_N33A mAb) (antibody, human IgG1, kappa, V domains shown) VH: QVQLVQSGAEVKKPGSSVKVSCKASGYTFTDYEMHWVKQAPGHGLEWIGAIDPETGDTAYNQKFKGKATLTADTSTSTAYMELSSLRSEDTAVYYCTRYFSFAYWGQGTLVTVSS VL: EIVLTQSPATLSLSPGERATISCRSSQSLRHSAGNTYLQWYQQKPGQAPRLLIYKVSNRFSGVPARFSGSGSGTDFTLTISSLEPEDFAVYFCYQSKHVPYTFGGGTKVEIKR

More lines, now with the values behind:

Binder | binding [1] | binding [2]
v37575 (codrituzumab) (antibody, human IgG1, kappa, V domains shown) VH: QVQLVQSGAEVKKPGASVKVSCKASGYTFTDYEMHWVRQAPGQGLEWMGALDPKTGDTAYSQKFKGRVTLTADKSTSTAYMELSSLTSEDTAVYYCTRFYSYTYWGQGTLVTVSS VL: DVVMTQSPLSLPVTPGEPASISCRSSQSLVHSNRNTYLHWYLQKPGQSPQLLIYKVSNRFSGVPDRFSGSGSGTDFTLKISRVEAEDVGVYYCSQNTHVPPTFGQGTKLEIKR | binds | –
v36180 (M3-H1L1) (antibody, human IgG1, kappa, V domains shown) VH: EVQLVQSGAEVKKPGSSVKVSCKASGYTFTDYEMHWVRQAPGQGLEWIGAIDPETGDTAYNQKFKGRATLTADKSTSTAYMELSSLRSEDTAVYYCTRYFSFAYWGQGTLVTVSS VL: DVQMTQSPSSVSASVGDRVTITCRSSQSLRHSNGNTYLQWYQQKPGKAPKLLIYKVSNRFSGVPSRFSGSGSGTDFTLTISSLQPEDFATYFCYQSKHVPYTFGQGTKVEIKR | binds | binds
v40205 (H18L6_LC_G34H mAb) (antibody, human IgG1, kappa, V domains shown) VH: QVQLVQSGAEVKKPGSSVKVSCKASGYTFTDYEMHWVKQAPGHGLEWIGAIDPETGDTAYNQKFKGKATLTADTSTSTAYMELSSLRSEDTAVYYCTRYFSFAYWGQGTLVTVSS VL: EIVLTQSPATLSLSPGERATISCRSSQSLRHSNHNTYLQWYQQKPGQAPRLLIYKVSNRFSGVPARFSGSGSGTDFTLTISSLEPEDFAVYFCYQSKHVPYTFGGGTKVEIKR | binds | binds
v40206 (H18L6_LC_G34R mAb) (antibody, human IgG1, kappa, V domains shown) VH: QVQLVQSGAEVKKPGSSVKVSCKASGYTFTDYEMHWVKQAPGHGLEWIGAIDPETGDTAYNQKFKGKATLTADTSTSTAYMELSSLRSEDTAVYYCTRYFSFAYWGQGTLVTVSS VL: EIVLTQSPATLSLSPGERATISCRSSQSLRHSNRNTYLQWYQQKPGQAPRLLIYKVSNRFSGVPARFSGSGSGTDFTLTISSLEPEDFAVYFCYQSKHVPYTFGGGTKVEIKR | binds | binds
v40203 (H18L6_LC_G34D mAb) (antibody, human IgG1, kappa, V domains shown) VH: QVQLVQSGAEVKKPGSSVKVSCKASGYTFTDYEMHWVKQAPGHGLEWIGAIDPETGDTAYNQKFKGKATLTADTSTSTAYMELSSLRSEDTAVYYCTRYFSFAYWGQGTLVTVSS VL: EIVLTQSPATLSLSPGERATISCRSSQSLRHSNDNTYLQWYQQKPGQAPRLLIYKVSNRFSGVPARFSGSGSGTDFTLTISSLEPEDFAVYFCYQSKHVPYTFGGGTKVEIKR | binds | binds
v40208 (H18L6_LC_G34Q mAb) (antibody, human IgG1, kappa, V domains shown) VH: QVQLVQSGAEVKKPGSSVKVSCKASGYTFTDYEMHWVKQAPGHGLEWIGAIDPETGDTAYNQKFKGKATLTADTSTSTAYMELSSLRSEDTAVYYCTRYFSFAYWGQGTLVTVSS VL: EIVLTQSPATLSLSPGERATISCRSSQSLRHSNQNTYLQWYQQKPGQAPRLLIYKVSNRFSGVPARFSGSGSGTDFTLTISSLEPEDFAVYFCYQSKHVPYTFGGGTKVEIKR | binds | binds
v40210 (H18L6_LC_G34S mAb) (antibody, human IgG1, kappa, V domains shown) VH: QVQLVQSGAEVKKPGSSVKVSCKASGYTFTDYEMHWVKQAPGHGLEWIGAIDPETGDTAYNQKFKGKATLTADTSTSTAYMELSSLRSEDTAVYYCTRYFSFAYWGQGTLVTVSS VL: EIVLTQSPATLSLSPGERATISCRSSQSLRHSNSNTYLQWYQQKPGQAPRLLIYKVSNRFSGVPARFSGSGSGTDFTLTISSLEPEDFAVYFCYQSKHVPYTFGGGTKVEIKR | binds | binds
v40207 (H18L6_LC_G34K mAb) (antibody, human IgG1, kappa, V domains shown) VH: QVQLVQSGAEVKKPGSSVKVSCKASGYTFTDYEMHWVKQAPGHGLEWIGAIDPETGDTAYNQKFKGKATLTADTSTSTAYMELSSLRSEDTAVYYCTRYFSFAYWGQGTLVTVSS VL: EIVLTQSPATLSLSPGERATISCRSSQSLRHSNKNTYLQWYQQKPGQAPRLLIYKVSNRFSGVPARFSGSGSGTDFTLTISSLEPEDFAVYFCYQSKHVPYTFGGGTKVEIKR | binds | binds
v40211 (H18L6_LC_G34V mAb) (antibody, human IgG1, kappa, V domains shown) VH: QVQLVQSGAEVKKPGSSVKVSCKASGYTFTDYEMHWVKQAPGHGLEWIGAIDPETGDTAYNQKFKGKATLTADTSTSTAYMELSSLRSEDTAVYYCTRYFSFAYWGQGTLVTVSS VL: EIVLTQSPATLSLSPGERATISCRSSQSLRHSNVNTYLQWYQQKPGQAPRLLIYKVSNRFSGVPARFSGSGSGTDFTLTISSLEPEDFAVYFCYQSKHVPYTFGGGTKVEIKR | binds | binds
v40204 (H18L6_LC_G34E mAb) (antibody, human IgG1, kappa, V domains shown) VH: QVQLVQSGAEVKKPGSSVKVSCKASGYTFTDYEMHWVKQAPGHGLEWIGAIDPETGDTAYNQKFKGKATLTADTSTSTAYMELSSLRSEDTAVYYCTRYFSFAYWGQGTLVTVSS VL: EIVLTQSPATLSLSPGERATISCRSSQSLRHSNENTYLQWYQQKPGQAPRLLIYKVSNRFSGVPARFSGSGSGTDFTLTISSLEPEDFAVYFCYQSKHVPYTFGGGTKVEIKR | binds | binds
